The results in this text go back to paper PMC4674064, “Newly Characterized Region of CP190 Associates with Microtubules and Mediates Proper Spindle Morphology in Drosophila Stem Cells” (PLoS ONE, 2015).

These are yes or no findings as the source states them, for the method shown.

For the experiment, the target named is T1, EB1 (MT plus end-binding protein) (UniProt Q9XZ57).
T1 sequence: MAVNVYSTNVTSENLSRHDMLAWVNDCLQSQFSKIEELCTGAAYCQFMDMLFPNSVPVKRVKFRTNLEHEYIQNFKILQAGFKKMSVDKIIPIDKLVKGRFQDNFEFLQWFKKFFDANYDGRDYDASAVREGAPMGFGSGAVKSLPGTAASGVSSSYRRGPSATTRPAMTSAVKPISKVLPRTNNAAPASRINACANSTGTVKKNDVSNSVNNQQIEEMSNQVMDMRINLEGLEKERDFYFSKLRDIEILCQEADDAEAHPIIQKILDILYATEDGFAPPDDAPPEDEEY
As to the kind of experiment: SEC; purified F1, EB1 and F1+EB1 run on a sizing column; peak shift looked for; both purified. A general note: Size exclusion chromatography separates by hydrodynamic size, large species first.

B1: CP190 fragment F1 (aa 1-209; BTB domain plus linker) (domain or fragment, UniProt Q24478 1-209)
chain: MGEVKSVKVDNWGVFFLQKLQNFFNKTDYCDLTLQFRDNSQLKVHRLVLSACTDYFNVLEQTCEIVDDALIMPNEFQADVVVPIVNFMYTGTLEFELKMYGKLLRTAKEMNMTVLLKLLEAHRRTMENVNRQQRPPSPKGIRRRTVGQPSSGLPQQRVLGPSPQSRNVATPIAQRANTQRGSTGNTMSRTSGGSNRSPYGDSSNVKQEP
Turning to B1, the binding entry is on record as “no binding”.
